This passage reports binding results from patent CN102146137A.

The chains behind the UniProt entries cited, without tags or fusion partners. Residues count along the entry.
UniProt P05067, residues 672-713: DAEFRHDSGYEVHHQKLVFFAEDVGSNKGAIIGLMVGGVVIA

No constants are given. Whether binding was seen depends on the method and setting. Some entries that bind do so weakly or less than the wild type.

This assay deals with Aβ1-42多肽 (UniProt P05067). As to the kind of experiment: ELISA screen of hybridoma clones.

B1: 抗Aβ1-42鼠源单抗mZ1 (antibody, IgG1, V domains shown)
VH: EVKLVESGGGLVQPGGSLRLSCATSGFTFSDYYMNWVRQPPGKALEWMAFIRNRANGYSTEYSASVRGRFTISRDNSQNILYLQMNTLRVEDSATYYCTRMGPRGFDYWGQGTTLTVSS
VL: DVQMTQSTSSLSASLGDRVTISCRASQDISNYLNWYQQKPDGTVKLLIYYTSRLHSGVPSRFSGSGSGTDYSLTISNLQQGDIATYFCQQGHSLPRTFGGGTKLEIT
Take B1: the binding entry is on record as “binds”.
